Measured values taken from patent US20070269422A1.
These are yes or no findings as the source states them, for the method shown. Some binding calls cover weakened binding; strength is not graded here.

Biological target: mouse serum albumin (mouse), P07724
Assay: SPR (Biacore 3000), albumin on CM5 chip, one concentration, koff ranking
Conditions: remark: other sources report otherwise

B1: PMP6G7 (VHH)
VHH: QVQLVESGGGLVQPGGSLRLSCAASGFTFSNYWMYWVRVAPGKGLERISRDISTGGGYSYYADSVKGRFTISRDNAKNTLYLQMNSLKPEDTALYYCAKDREAQVDTLDFDYRGQGTQVTVSS
binding: binds
